# Assay results from PMC6072134.
# Amino acid sequences for entries named in this document (tags omitted).
# UniProt G5EBZ4: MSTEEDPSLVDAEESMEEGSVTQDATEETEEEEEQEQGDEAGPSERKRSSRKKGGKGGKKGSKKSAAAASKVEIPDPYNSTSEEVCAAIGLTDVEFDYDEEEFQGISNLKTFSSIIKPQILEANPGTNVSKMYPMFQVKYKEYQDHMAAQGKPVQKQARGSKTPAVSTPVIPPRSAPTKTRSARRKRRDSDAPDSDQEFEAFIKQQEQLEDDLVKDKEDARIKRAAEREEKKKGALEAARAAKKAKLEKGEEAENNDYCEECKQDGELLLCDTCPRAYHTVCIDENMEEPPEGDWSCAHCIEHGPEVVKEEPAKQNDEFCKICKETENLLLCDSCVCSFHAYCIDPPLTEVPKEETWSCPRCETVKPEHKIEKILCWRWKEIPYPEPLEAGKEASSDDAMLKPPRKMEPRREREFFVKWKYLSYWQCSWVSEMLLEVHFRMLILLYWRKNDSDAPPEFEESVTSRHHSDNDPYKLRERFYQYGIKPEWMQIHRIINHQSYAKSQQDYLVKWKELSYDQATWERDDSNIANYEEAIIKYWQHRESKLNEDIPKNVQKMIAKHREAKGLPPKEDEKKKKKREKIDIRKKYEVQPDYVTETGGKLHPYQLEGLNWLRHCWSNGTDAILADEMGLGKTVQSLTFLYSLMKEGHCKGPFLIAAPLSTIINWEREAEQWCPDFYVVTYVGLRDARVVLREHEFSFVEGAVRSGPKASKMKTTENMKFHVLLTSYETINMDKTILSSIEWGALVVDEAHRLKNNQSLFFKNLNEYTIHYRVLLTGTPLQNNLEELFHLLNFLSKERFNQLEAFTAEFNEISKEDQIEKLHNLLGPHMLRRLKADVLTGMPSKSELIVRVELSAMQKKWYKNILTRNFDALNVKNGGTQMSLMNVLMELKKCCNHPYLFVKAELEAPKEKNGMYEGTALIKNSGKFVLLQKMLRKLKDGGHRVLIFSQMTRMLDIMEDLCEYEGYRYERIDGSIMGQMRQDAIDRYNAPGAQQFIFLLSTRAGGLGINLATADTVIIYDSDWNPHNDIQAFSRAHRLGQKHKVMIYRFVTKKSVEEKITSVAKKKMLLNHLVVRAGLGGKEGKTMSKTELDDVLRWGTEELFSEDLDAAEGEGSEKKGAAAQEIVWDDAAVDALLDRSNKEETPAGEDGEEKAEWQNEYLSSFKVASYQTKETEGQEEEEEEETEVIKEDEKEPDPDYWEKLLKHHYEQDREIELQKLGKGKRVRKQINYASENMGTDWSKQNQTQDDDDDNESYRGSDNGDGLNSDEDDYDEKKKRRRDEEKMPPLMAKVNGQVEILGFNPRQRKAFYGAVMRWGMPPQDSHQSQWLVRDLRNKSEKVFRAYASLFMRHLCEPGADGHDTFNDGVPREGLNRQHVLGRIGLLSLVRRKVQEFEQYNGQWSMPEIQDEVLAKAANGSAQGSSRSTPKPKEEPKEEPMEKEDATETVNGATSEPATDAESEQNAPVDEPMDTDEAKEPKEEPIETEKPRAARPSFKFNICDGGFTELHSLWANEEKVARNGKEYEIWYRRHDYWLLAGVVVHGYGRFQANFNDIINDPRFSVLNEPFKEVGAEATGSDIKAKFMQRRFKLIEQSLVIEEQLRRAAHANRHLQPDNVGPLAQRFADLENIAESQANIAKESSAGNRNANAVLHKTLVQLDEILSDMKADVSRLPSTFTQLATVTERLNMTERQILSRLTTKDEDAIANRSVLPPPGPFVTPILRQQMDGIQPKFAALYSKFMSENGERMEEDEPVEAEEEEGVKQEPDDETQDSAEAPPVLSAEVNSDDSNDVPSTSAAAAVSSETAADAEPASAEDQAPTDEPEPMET
# UniProt P90916: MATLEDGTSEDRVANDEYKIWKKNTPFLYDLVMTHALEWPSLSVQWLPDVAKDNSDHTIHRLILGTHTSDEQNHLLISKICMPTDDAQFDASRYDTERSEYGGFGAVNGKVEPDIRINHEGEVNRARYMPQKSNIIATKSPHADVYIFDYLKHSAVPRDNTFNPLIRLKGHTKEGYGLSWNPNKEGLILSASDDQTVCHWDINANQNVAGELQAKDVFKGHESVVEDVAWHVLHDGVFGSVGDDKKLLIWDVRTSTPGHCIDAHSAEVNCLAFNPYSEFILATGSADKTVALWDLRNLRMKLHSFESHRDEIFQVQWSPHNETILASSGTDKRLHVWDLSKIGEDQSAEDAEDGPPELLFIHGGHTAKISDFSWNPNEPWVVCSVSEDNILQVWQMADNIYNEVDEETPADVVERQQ
# UniProt O17695: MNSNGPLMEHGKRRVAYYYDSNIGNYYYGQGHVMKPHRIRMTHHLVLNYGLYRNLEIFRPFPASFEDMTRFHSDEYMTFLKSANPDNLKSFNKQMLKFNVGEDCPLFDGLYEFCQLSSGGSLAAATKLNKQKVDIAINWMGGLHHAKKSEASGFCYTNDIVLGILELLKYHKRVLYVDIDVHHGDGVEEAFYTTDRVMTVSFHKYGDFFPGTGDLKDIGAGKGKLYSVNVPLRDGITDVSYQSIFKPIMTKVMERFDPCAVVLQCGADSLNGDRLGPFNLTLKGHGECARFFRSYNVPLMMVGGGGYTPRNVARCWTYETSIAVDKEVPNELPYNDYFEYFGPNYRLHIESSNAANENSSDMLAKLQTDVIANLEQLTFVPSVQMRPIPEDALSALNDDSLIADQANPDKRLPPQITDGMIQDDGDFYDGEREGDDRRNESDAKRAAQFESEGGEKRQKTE
# No constants are given. Whether binding was seen depends on the method and setting. In cells and extracts the contact can be indirect. Here binding means that the protein was enriched with, or labelled near, the bait; the list need not be complete. For some of these results: A no says only that the protein was not detected with the bait. Tags and fused reporters may be left off the sequences shown.
# B1: PMK-3 (protein, UniProt O44514 1-474)
# chain: MASVPSSSSLPVSHVRRHEDVSTPSAPPTKRSNNQSQPPESYEPNTWLQQQREQEQQKKLAAENIKKQSIEATGNNEMVGEEEEDILSKPCGPHKRRFQFVMIRNITFAIPEGYDVEPNSIEYLGGGSFGNVIKTSAVCRDGLRRYVAIKKMREPFFDPHHARRIFRETKLLQLMRHDNIICALDIYTPDEENDFRDVYVVTEFAGRSLYQILKQQRDYGRRVLTDEHIKFIIYQIIRALKYIHSANIIHRDLKPGNLALTDDSDLMILDFGLARSLEKKDTSLTQYVQTRWYRSPEVIYWKIDSYTNLADMWSLGCIAAELLTGEPLFPGDEPNAQYQRITQLCGSPDEELLTKIENDNSSAIKAVIQSYTTHKRRNFRDVFSAHNPSEDFIDLLEKLLVLDPEKRITVEEAIQHPYLAEFSLPEDEPRADHIFDLDDSQARTRFEWRDAVWKEIMNYKRLSSSPLIPGEADR
# B2: MEP-1 (protein, UniProt Q21502 1-870)
# chain: MVTADETVLATTTNTTSMSVEPTDPRSAGESSSDSEPDTIEQLKAEQREVMADAANGSEVNGNQENGKEEAASADVEVIEIDDTEESTDPSPDGSDENGDAASTSVPIEEEARKKDEGASEVTVASSEIEQDDDGDVMEITEEPNGKSEDTANGTVTEEVLDEEEPEPSVNGTTEIATEKEPEDSSMPVEQNGKGVKRPVECIELDDDDDDEIQEISTPAPAKKAKIDDVKATSVPEEDNNEQAQKRLLDKLEEYVKEQKDQPSSKSRKVLDTLLGAINAQVQKEPLSVRKLILDKVLVLPNTISFPPSQVCDLLIEHDPEMPLTKVINRMFGEERPKLSDSEKRERAQLKQHNPVPNMTKLLVDIGQDLVQEATYCDIVHAKNLPEVPKNLETYKQVAAQLKPVWETLKRKNEPYKLKMHRCDVCGFQTESKLVMSTHKENLHFTGSKFQCTMCKETDTSEQRMKDHYFETHLVIAKSEEKESKYPCAICEEDFNFKGVREQHYKQCKKDYIRIRNIMMPKQDDHLYINRWLWERPQLDPSILQQQQQAALQQAQQKKQQQLLHQQQAAQAAAAAQLLRKQQLQQQQQQQQARLREQQQAAQFRQVAQLLQQQSAQAQRAQQNQGNVNHNTLIAAMQASLRRGGQQGNSLAVSQLLQKQMAALKSQQGAQQLQAAVNSMRSQNSQKTPTHRSSKLVTTPSHATVGSSSAPTFVCEICDASVQEKEKYLQHLQTTHKQMVGKVLQDMSQGAPLACSRCRDRFWTYEGLERHLVMSHGLVTADLLLKAQKKEDGGRCKTCGKNYAFNMLQHLVADHQVKLCSAEIMYSCDVCAFKCSSYQTLEAHLTSNHPKGDKKTSTPAKKDDCITLDD
# B3: DCP-66 (protein, UniProt G5ED89 1-724)
# chain: MAQVQQVPSSPMNGIPEKNGNGLSIEESASTAVAALAHIQNGAVLFHGTPTKDLNGASTSIDTDDLQLSPSDLRRRSTRASALKAQEKIKLKDDIVQGPQKRANDDDDMEDEELGDEINEQSAPKKRRLENGKEFDQTCFRFGLRANNEGEVYAMTDESENSSIHESEMEVVRYHYEKMKNKEPDEEQLRERLNMRREAENQLREEEAKLLVLRKMKDSQTRAITKLAAETKAADLAEATSAAYKPAVATNGKSVTNGKNSMIESNNKTMNGLKNLSIPQQLELLQKLSSQSPAAKQAYIMAKKNPAQTTQLFQQLITINNQNLQKQKELSAAETNASASASPAVQQSQQAQQPQQAQITQSKLLNQQTPAQRIQAARLAFRAQADKQLTTIPTQKSQPHDITFLPNPNASAFLALHGLDLVVQHVLKDRSNETPYAGPSYECEECKTECAHTWKAIGSTQDDLHLYCENCVRSAQKRKNRTDQTALLKRAFQKITAQEKLLQEFEKKIAEGQLEQYAEAKAAAPATSQTIPTSSTATVSSIPLVPRLPQIPSSTGSSTPTQAVKTSTPIHSTPKSSSSSAKKTAAQLQQQSMQGMNQLFSTAMLRNNPQMQQMLQMYQALAMGGGAANMANNQMAMLFQAQAMQAAQAQVARAQAAKAQAAQAQAAQAQAQAQANREANQQSMLIQALMSNGQVNVQALQQLQKLTPEQQKALIEVVKRQTRK
# B4: CEH-18 (protein, UniProt P41934 1-542)
# chain: MNTLENTFQFLAEVFEANGGCLVTERVSPSLSGASKRKSRPVKRIITEDEVIPEEEVVEEEEEEKVEQPSEEVTCPAMQVDATDAILASLRQIANNDLSEHCIREDEGNTSAEVFSNGNGEDMEQAGLAGTDLLRRVADMLQGNHNGSLNSHFLQQQFAAFKETVDPTPVSTNGNGLLTPITTQLSPLFTSTDAFNSPEKLLQAIMTPSLGFLGANGLGASNSGLLSSPLIAPSPTLLQSLMNTPTQPTASLTPKKAENRPPVVSQTLKASKRRLFDDTSRIEAASMSGDDRIDMNELEAFAQTFKKQRIKFGFTQGDVGVALGKRYGTDFSQTTISRFEALNLSFKNMCKLRPLLKEWLADVEMAIEGGATVTDLIDKKTIHNGNHHTIHHVDIHETSISNSISSVTASSLLSREQHVKRRRKRTNLDMNQRNALDTFFALNPRPDHDKMTDIANSLELDRDVVRVWFCNRRQKMRRVDEPIEGEMVTPSVSPVFPHFSSMSALEQIQEAARLASCQASNDDSDGTSGSPDAPSNDGCSDL
# B5: STA-2 (protein, UniProt Q20977 1-567)
# chain: MSSVVSDQMDIESSSAFSPAEPVVDGAFVSKHNLSAEAYQGFKECADSLLSGKIAQNEQLPFIQRTLQICENVILNFEDEKQHLMSDVLLVWAMKQQKLSIATLHTQQLHYKELDLINLQFEYFGELLQQTLSGLDYLKQYYPNVGFEEVHSKVRNLTHYFLYYSIIVSRQPPSVIVKCGEAENHRRSRFWFNTEIRILGGSAFGIDTNNENSNVNCYLITDETAKQLLNNAYLDIFESEEFCIEPNTSTFQKKDARGIKAKFDDMKVAKKVALRRDSVATKRYCLCYNIQLQTNCGIELVGKKVSLPFAVLVGPKADVEAKLFLERSFADLVRHPLSDIPTHVSCAEMADALEMKFQAIIETPQKNTDGPSVVQPRKFNMQTKQHLVMRMKPNNQGFLPLDNFMKLPVAEEFQHKKSASAEGDWKLVPFYDWFFKLAEITNKYLYSMWYDGLVYGFCSKEDAENILRCIPRSVLLVRFSDIEYGKIKISVKNRNGEIRHHWYEHADLNARSLNSELLSNHKFSDVDLIYPDIDLEVALGGRNKPRIRLPRNLAPDEIYFDNQGAAT
# B6: PMK-1 (protein, UniProt Q17446 1-377)
# chain: MFPQTTMDHILHPTPREGYYVVELNRSVWVVPNYYINLTPIGTGAYGTVCAAECTRSGTRVAIKKFNRPFQSIIHARRTYRELRLLRCMCHENIIDLLDVFTPNENVNDIEDVYFVSMLMGADLSNILKIQRLNDDHIQFLVYQILRGLKYIHSADIIHRDLKPSNIAVNEDCELKILDFGLARQTDSEMTGYVATRWYRAPEIMLNWMHYTQTVDVWSVGCILAELITGKTLFPGSDHIDQLTRIMSVTGTPDEEFLKKISSEEARNYIRNLPKMTRRDFKRLFAQATPQAIDLLEKMLHLDPDRRPTAKEAMEHEYLAAYHDETDEPIAEEMDLNDDVRADTIDEWKKIIWEEISDFQKNVAFADEEEDEEKMES
# Target: T1, AKIR-1::GFP (C. elegans) (UniProt Q966L3)
# T1 sequence: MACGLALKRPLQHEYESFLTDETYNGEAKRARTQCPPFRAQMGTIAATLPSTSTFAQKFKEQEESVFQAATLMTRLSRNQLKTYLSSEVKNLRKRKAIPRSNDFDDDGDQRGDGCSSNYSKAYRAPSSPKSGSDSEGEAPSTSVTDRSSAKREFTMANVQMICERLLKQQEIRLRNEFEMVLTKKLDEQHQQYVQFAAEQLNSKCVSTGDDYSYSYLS
# Assay: affinity purification with mass spectrometry; AKIR-1::GFP captured on anti-GFP agarose beads (NanoTrap) against blocked control beads, from cleared lysates of mixed-stage worms carrying akir-1p::AKIR-1::gfp, uninfected or infected with D. coniospora for 16 h at 25°C; 4°C, washes up to 300 mM NaCl; label-free quantitative LC-MS/MS, 3 independent experiments
row,Molecule,binding
1,LET-418 (from UniProt G5EBZ4 1-1829),binds
2,LIN-53 (from UniProt P90916 1-417),binds
3,HDA-1 (from UniProt O17695 1-461),binds
4,LIN-40,binds

# Target: T1, AKIR-1::GFP (C. elegans)
# Assay: as above
# Remark: another data set of the same source
row,Molecule,binding
1,B1,binds
2,B2,binds
3,B3,binds
4,B4,binds
5,B5,no binding
6,B6,no binding
